What all share (test): NP40-soluble protein abundance relative to vehicle (solubility fold change) (ratio); higher = more soluble protein in presence of AMP-PNP
Assay [1] deals with T1, C9JI46 and related entries (UniProt Q8N3X6).
T1 sequence (whole entry): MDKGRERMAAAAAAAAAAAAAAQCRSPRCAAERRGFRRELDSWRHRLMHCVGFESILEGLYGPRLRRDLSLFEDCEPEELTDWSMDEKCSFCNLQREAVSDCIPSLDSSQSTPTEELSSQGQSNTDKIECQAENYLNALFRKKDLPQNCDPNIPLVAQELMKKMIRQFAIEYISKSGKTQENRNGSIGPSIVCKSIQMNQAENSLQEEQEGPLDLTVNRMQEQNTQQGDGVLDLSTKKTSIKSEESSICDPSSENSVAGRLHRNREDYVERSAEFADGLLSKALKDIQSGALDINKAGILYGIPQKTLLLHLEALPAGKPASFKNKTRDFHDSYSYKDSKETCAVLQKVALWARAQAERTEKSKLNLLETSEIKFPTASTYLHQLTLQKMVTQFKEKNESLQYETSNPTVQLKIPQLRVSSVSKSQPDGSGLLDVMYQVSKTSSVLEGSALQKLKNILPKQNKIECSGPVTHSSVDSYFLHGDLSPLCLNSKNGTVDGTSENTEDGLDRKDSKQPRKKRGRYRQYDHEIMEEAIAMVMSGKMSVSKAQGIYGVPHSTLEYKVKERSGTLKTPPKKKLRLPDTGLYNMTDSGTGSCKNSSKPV
Summed up:
(§1)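 Each value is a fold change relative to the detergent-processed vehicle, calculated per replicate from vsn-normalised intensities. Jurkat crude lysate received eight concentrations (0.1 to 10 mM) for 10 min at room temperature and 3 min at 37 °C, then was solubilised in 0.8% NP40 with benzonase (60 min, 4 °C). The ultracentrifuged supernatant was TMT-labelled and run by LC-MS/MS in three independent experiments.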

For assay [2], the target named is T2, C9JLB7 and related entries (UniProt Q96HP4).
T2 sequence (whole entry): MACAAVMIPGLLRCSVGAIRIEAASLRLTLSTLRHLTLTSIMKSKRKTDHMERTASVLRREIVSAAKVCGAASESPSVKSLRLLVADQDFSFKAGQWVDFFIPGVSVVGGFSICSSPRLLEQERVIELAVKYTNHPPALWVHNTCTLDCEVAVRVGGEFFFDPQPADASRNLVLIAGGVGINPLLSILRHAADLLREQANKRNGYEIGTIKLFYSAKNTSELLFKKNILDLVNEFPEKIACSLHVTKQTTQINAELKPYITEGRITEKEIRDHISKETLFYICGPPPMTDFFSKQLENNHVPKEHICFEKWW
Summed up:
as §1

The target of assay [3] is T3, D6R9V8 and related entries (UniProt Q9UKY7).
T3 sequence (whole entry): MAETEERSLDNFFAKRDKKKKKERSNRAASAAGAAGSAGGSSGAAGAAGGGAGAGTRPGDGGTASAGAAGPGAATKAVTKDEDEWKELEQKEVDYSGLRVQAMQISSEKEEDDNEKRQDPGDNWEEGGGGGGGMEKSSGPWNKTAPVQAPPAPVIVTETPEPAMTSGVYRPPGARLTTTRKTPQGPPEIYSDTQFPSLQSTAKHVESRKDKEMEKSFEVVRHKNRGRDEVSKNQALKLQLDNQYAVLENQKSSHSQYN
Summed up: as §1

In assay [4] the target is T4, UniProt A2RTX5 and related entries.
T4 sequence (whole entry): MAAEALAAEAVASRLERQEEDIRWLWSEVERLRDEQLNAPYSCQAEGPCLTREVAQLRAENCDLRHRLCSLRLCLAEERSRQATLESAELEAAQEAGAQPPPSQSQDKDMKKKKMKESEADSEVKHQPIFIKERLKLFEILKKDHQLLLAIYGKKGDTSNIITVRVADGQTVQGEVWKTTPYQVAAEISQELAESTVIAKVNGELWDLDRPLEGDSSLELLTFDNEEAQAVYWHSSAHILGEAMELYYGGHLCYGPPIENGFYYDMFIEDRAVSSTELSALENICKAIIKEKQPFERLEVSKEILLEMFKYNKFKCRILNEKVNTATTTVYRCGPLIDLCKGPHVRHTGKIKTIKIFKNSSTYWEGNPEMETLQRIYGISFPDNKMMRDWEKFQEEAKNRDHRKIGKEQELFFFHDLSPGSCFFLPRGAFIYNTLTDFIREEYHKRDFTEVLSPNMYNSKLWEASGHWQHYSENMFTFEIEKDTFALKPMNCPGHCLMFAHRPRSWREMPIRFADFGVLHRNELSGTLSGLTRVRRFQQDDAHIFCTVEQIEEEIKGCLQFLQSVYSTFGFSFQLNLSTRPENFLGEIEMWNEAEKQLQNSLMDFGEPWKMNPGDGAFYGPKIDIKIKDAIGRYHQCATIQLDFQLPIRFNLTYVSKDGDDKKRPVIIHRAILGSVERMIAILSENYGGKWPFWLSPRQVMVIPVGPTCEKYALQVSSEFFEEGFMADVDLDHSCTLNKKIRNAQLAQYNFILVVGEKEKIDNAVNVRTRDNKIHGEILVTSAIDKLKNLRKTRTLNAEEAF
Summed up: as §1

Among the data in the supplement of paper PMC6411743 are NP40-soluble protein abundance values, retold here.

The structures appear in SMILES notation. ± gives the standard deviation of the averaged measurements. Only a part is listed here, and it is no random draw.

Consider `Nc1ncnc2c1ncn2[C@@H]1O[C@H](COP(=O)(O)OP(=O)(O)NP(=O)(O)O)[C@@H](O)[C@H]1O` [adenylyl imidodiphosphate], for which the NP40-soluble protein abundance in assay [1] (concentration: 2mM) was determined as 1.024 ± 0.0091; in assay [1] (concentration: 4mM), 1.01 ± 0.058; in assay [1] (concentration: 6mM), 0.992 ± 0.017; in assay [1] (concentration: 8mM) it was 0.952 ± 0.014; in assay [1] (concentration: 10mM), 1 ± 0.039; in assay [2] (concentration: 1mM), 1.01 ± 0.019. For the same compound, the NP40-soluble protein abundance stood at 0.96 ± 0.029 in assay [2] (concentration: 2mM); 0.976 ± 0.037 in assay [2] (concentration: 4mM); 0.984 ± 0.022 in assay [2] (concentration: 6mM); 0.98 ± 0.045 in assay [2] (concentration: 8mM); 0.935 ± 0.044 in assay [2] (concentration: 10mM); 1.03 ± 0.021 in assay [3] (concentration: 1mM). For the same compound, the NP40-soluble protein abundance was determined as 1.09 ± 0.089 in assay [3] (concentration: 2mM); 1.03 ± 0.034 in assay [3] (concentration: 4mM); 1.04 ± 0.034 in assay [3] (concentration: 6mM); 0.993 ± 0.028 in assay [3] (concentration: 8mM); 1.05 ± 0.07 in assay [3] (concentration: 10mM); 1.05 ± 0.021 in assay [4] (concentration: 1mM). Besides, the NP40-soluble protein abundance in assay [4] (concentration: 2mM) amounted to 0.998 ± 0.05; in assay [4] (concentration: 4mM) it was 1 ± 0.047; in assay [4] (concentration: 6mM) it was 0.974 ± 0.03; in assay [4] (concentration: 8mM), 0.989 ± 0.033; in assay [4] (concentration: 10mM) it was 0.987 ± 0.039.
